# The supplement of paper PMC8728848
# The other results are listed elsewhere or left out.
# B1: Sp8391B-bot-388-20-388 (Bacteroides ovatus) (protein)
# chain: GCQNNDENEQHYDNKLFISASNFTKEILFKAGDTNVETGLSVAIAKPEEHDIKVTMSPAPELLSTYKLAYYDETAVLLSEEHYSMPETSTTIKSGSIVSPELPIEFINTGELDIKTTYVLPVTIKSVEGIGVLQSAKTYYYVFRGASLINVVCNISRNRAYPDFKNDSKFNNLTENTMEILFKANSFPNTLNTLMGIESNYLLRIGDATIPNNQLQVATSVNNCTSADLQLESGKWYHVAVAFNKGNVKVYINGVEKLSGSTGKSSVSLGAKHTNEEDGSRCFWVGYSYKDDRYFDGVVSEVRIWNRALTAEEIQATNHFYTIEPESEGLIAYWKFDEGSGTVAKDYSVSGYDLTIEKEPKWESVSLPQ
# Experiments:
# Assay in all cases: glycan array binding signal (z-score within array); higher = stronger binding
# Settings in all cases: glycan notation: IUPAC condensed, linker removed
# [1] = target: GlcNAc(b1-2)[GlcNAc(b1-4)]Man(a1-3)[GlcNAc(b1-4)][GlcNAc(b1-2)[GlcNAc(b1-6)]Man(a1-6)]Man(b1-4)GlcNAc(b1-4)GlcNAc
# How it was run: (§1)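 The binding signal is a Z-score computed within each array and averaged over linkers. Arrays of the same protein sequence at different concentrations or buffers were also averaged together. Data originate from 3228 arrays in the Consortium for Functional Glycomics database, kept only where the protein sequence was available.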
# [2] = target: GlcNAc(b1-2)[GlcNAc(b1-4)]Man(a1-3)[GlcNAc(b1-4)][GlcNAc(b1-2)[GlcNAc(b1-6)]Man(a1-6)]Man(b1-4)GlcNAc(b1-4)[Fuc(a1-6)]GlcNAc
# How it was run: as §1
# [3] = target: GlcNAc(b1-2)[GlcNAc(b1-6)]Man(a1-6)[GlcNAc(b1-2)Man(a1-3)]Man(b1-4)GlcNAc(b1-4)GlcNAc
# How it was run: as §1
# [4] = target: GlcNAc(b1-2)[GlcNAc(b1-6)]Man(a1-6)[GlcNAc(b1-2)Man(a1-3)]Man(b1-4)GlcNAc(b1-4)[Fuc(a1-6)]GlcNAc
# How it was run: as §1
# [5] = target: GlcNAc(b1-2)[GlcNAc(b1-6)]Man(a1-6)[GlcNAc(b1-4)][GlcNAc(b1-2)Man(a1-3)]Man(b1-4)GlcNAc(b1-4)GlcNAc
# How it was run: as §1
# GlcNAc(b1-3)Fuc = target: GlcNAc(b1-3)Fuc
# How it was run: as §1
# GlcNAc(b1-3)Gal = target: GlcNAc(b1-3)Gal
# How it was run: as §1
# [6] = target: GlcNAc(b1-3)Gal(b1-3)GalNAc
# How it was run: as §1
# GlcNAc(b1-3)Gal(b1-4)Glc = target: GlcNAc(b1-3)Gal(b1-4)Glc
# How it was run: as §1
# [7] = target: GlcNAc(b1-3)Gal(b1-4)GlcNAc
# How it was run: as §1
# [8] = target: GlcNAc(b1-3)Gal(b1-4)GlcNAc(b1-2)Man(a1-3)[GlcNAc(b1-3)Gal(b1-4)GlcNAc(b1-2)Man(a1-6)]Man(b1-4)GlcNAc(b1-4)GlcNAc
# How it was run: as §1
# [9] = target: GlcNAc(b1-3)Gal(b1-4)GlcNAc(b1-2)Man(a1-3)[GlcNAc(b1-3)Gal(b1-4)GlcNAc(b1-2)Man(a1-6)]Man(b1-4)GlcNAc(b1-4)[Fuc(a1-6)]GlcNAc
# How it was run: as §1
# [10] = target: GlcNAc(b1-3)Gal(b1-4)GlcNAc(b1-2)[GlcNAc(b1-3)Gal(b1-4)GlcNAc(b1-6)]Man(a1-6)[GlcNAc(b1-3)Gal(b1-4)GlcNAc(b1-2)Man(a1-3)]Man(b1-4)GlcNAc(b1-4)GlcNAc
# How it was run: as §1
# [11] = target: GlcNAc(b1-3)Gal(b1-4)GlcNAc(b1-3)Gal(b1-4)GlcNAc
# How it was run: as §1
# [12] = target: GlcNAc(b1-3)Gal(b1-4)GlcNAc(b1-3)Gal(b1-4)GlcNAc(b1-2)Man(a1-3)[GlcNAc(b1-3)Gal(b1-4)GlcNAc(b1-3)Gal(b1-4)GlcNAc(b1-2)Man(a1-6)]Man(b1-4)GlcNAc(b1-4)GlcNAc
# How it was run: as §1
# [13] = target: GlcNAc(b1-3)Gal(b1-4)GlcNAc(b1-3)Gal(b1-4)GlcNAc(b1-2)Man(a1-3)[GlcNAc(b1-3)Gal(b1-4)GlcNAc(b1-3)Gal(b1-4)GlcNAc(b1-2)Man(a1-6)]Man(b1-4)GlcNAc(b1-4)[Fuc(a1-6)]GlcNAc
# How it was run: as §1
# [14] = target: GlcNAc(b1-3)Gal(b1-4)GlcNAc(b1-3)Gal(b1-4)GlcNAc(b1-2)[GlcNAc(b1-3)Gal(b1-4)GlcNAc(b1-3)Gal(b1-4)GlcNAc(b1-6)]Man(a1-6)[GlcNAc(b1-3)Gal(b1-4)GlcNAc(b1-3)Gal(b1-4)GlcNAc(b1-2)Man(a1-3)]Man(b1-4)GlcNAc(b1-4)[Fuc(a1-6)]GlcNAc
# How it was run: as §1
# [15] = target: GlcNAc(b1-3)Gal(b1-4)GlcNAc(b1-3)Gal(b1-4)GlcNAc(b1-3)Gal(b1-4)GlcNAc(b1-2)Man(a1-3)[GlcNAc(b1-3)Gal(b1-4)GlcNAc(b1-3)Gal(b1-4)GlcNAc(b1-3)Gal(b1-4)GlcNAc(b1-2)Man(a1-6)]Man(b1-4)GlcNAc(b1-4)GlcNAc
# How it was run: as §1
# [16] = target: GlcNAc(b1-3)Gal(b1-4)GlcNAc(b1-3)Gal(b1-4)GlcNAc(b1-3)Gal(b1-4)GlcNAc(b1-2)Man(a1-3)[GlcNAc(b1-3)Gal(b1-4)GlcNAc(b1-3)Gal(b1-4)GlcNAc(b1-3)Gal(b1-4)GlcNAc(b1-2)Man(a1-6)]Man(b1-4)GlcNAc(b1-4)[Fuc(a1-6)]GlcNAc
# How it was run: as §1
# [17] = target: GlcNAc(b1-3)Gal(b1-4)GlcNAc(b1-3)Gal(b1-4)GlcNAc(b1-3)Gal(b1-4)GlcNAc(b1-2)[GlcNAc(b1-3)Gal(b1-4)GlcNAc(b1-3)Gal(b1-4)GlcNAc(b1-3)Gal(b1-4)GlcNAc(b1-6)]Man(a1-6)[GlcNAc(b1-3)Gal(b1-4)GlcNAc(b1-3)Gal(b1-4)GlcNAc(b1-3)Gal(b1-4)GlcNAc(b1-2)Man(a1-3)]Man(b1-4)GlcNAc(b1-4)[Fuc(a1-6)]GlcNAc
# How it was run: as §1
# [18] = target: GlcNAc(b1-3)Gal(b1-4)GlcNAc(b1-3)Gal(b1-4)GlcNAc(b1-3)Gal(b1-4)GlcNAc(b1-3)Gal(b1-4)GlcNAc(b1-2)Man(a1-3)[GlcNAc(b1-3)Gal(b1-4)GlcNAc(b1-3)Gal(b1-4)GlcNAc(b1-3)Gal(b1-4)GlcNAc(b1-3)Gal(b1-4)GlcNAc(b1-2)Man(a1-6)]Man(b1-4)GlcNAc(b1-4)GlcNAc
# How it was run: as §1
# [19] = target: GlcNAc(b1-3)Gal(b1-4)GlcNAc(b1-3)Gal(b1-4)GlcNAc(b1-3)Gal(b1-4)GlcNAc(b1-3)Gal(b1-4)GlcNAc(b1-2)Man(a1-3)[GlcNAc(b1-3)Gal(b1-4)GlcNAc(b1-3)Gal(b1-4)GlcNAc(b1-3)Gal(b1-4)GlcNAc(b1-3)Gal(b1-4)GlcNAc(b1-2)Man(a1-6)]Man(b1-4)GlcNAc(b1-4)[Fuc(a1-6)]GlcNAc
# How it was run: as §1
# [20] = target: GlcNAc(b1-3)Gal(b1-4)GlcNAc(b1-3)Gal(b1-4)GlcNAc(b1-3)Gal(b1-4)GlcNAc(b1-3)Gal(b1-4)GlcNAc(b1-2)[GlcNAc(b1-3)Gal(b1-4)GlcNAc(b1-3)Gal(b1-4)GlcNAc(b1-3)Gal(b1-4)GlcNAc(b1-3)Gal(b1-4)GlcNAc(b1-6)]Man(a1-6)[GlcNAc(b1-3)Gal(b1-4)GlcNAc(b1-3)Gal(b1-4)GlcNAc(b1-3)Gal(b1-4)GlcNAc(b1-3)Gal(b1-4)GlcNAc(b1-2)Man(a1-3)]Man(b1-4)GlcNAc(b1-4)[Fuc(a1-6)]GlcNAc
# How it was run: as §1
binder,measurement,setting,value
B1,glycan array binding signal (z-score),[1],-0.672
same,glycan array binding signal (z-score),[2],-0.492
same,glycan array binding signal (z-score),[3],-0.225
same,glycan array binding signal (z-score),[4],0.418
same,glycan array binding signal (z-score),[5],-0.107
same,glycan array binding signal (z-score),GlcNAc(b1-3)Fuc,-0.326
same,glycan array binding signal (z-score),GlcNAc(b1-3)Gal,-0.232
same,glycan array binding signal (z-score),[6],0.085
same,glycan array binding signal (z-score),GlcNAc(b1-3)Gal(b1-4)Glc,-0.949
same,glycan array binding signal (z-score),[7],-0.27
same,glycan array binding signal (z-score),[8],0.607
same,glycan array binding signal (z-score),[9],-0.621
same,glycan array binding signal (z-score),[10],0.617
same,glycan array binding signal (z-score),[11],-0.184
same,glycan array binding signal (z-score),[12],0.656
same,glycan array binding signal (z-score),[13],0.781
same,glycan array binding signal (z-score),[14],-0.347
same,glycan array binding signal (z-score),[15],-0.679
same,glycan array binding signal (z-score),[16],2.65
same,glycan array binding signal (z-score),[17],0.958
same,glycan array binding signal (z-score),[18],-0.236
same,glycan array binding signal (z-score),[19],0.345
same,glycan array binding signal (z-score),[20],0.482

# Some of the entries so far, as tab-separated lines:
binder	measurement	setting	value
B1	glycan array binding signal (z-score)	[5]	-0.107
same	glycan array binding signal (z-score)	GlcNAc(b1-3)Fuc	-0.326
